No constants are given. Whether binding was seen depends on the method and setting. In cells and extracts the contact can be indirect. Some results given as binding are weak or reduced against the parent protein; the word gives no strength. For some assays here: Tags and fused reporters may be left off the sequences shown.
T1: developmentally regulated GTP-binding protein 1 (DRG1), HA-DRG1 expressed in 293T cells (UniProt P32233)
T1 sequence: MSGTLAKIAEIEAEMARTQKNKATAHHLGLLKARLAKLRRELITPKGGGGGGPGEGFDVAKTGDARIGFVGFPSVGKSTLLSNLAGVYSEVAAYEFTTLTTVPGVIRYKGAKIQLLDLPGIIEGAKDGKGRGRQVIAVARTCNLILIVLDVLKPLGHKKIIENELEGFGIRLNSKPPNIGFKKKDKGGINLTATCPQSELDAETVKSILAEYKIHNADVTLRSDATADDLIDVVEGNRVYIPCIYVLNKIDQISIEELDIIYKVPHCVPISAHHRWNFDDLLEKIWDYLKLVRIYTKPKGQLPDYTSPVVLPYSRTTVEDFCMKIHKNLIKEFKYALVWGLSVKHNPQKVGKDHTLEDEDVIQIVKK

T2: developmentally regulated GTP-binding protein 1 (DRG1), endogenous in HL-1 cells (mouse (endogenous in HL-1)) (UniProt P32233)
T2 sequence: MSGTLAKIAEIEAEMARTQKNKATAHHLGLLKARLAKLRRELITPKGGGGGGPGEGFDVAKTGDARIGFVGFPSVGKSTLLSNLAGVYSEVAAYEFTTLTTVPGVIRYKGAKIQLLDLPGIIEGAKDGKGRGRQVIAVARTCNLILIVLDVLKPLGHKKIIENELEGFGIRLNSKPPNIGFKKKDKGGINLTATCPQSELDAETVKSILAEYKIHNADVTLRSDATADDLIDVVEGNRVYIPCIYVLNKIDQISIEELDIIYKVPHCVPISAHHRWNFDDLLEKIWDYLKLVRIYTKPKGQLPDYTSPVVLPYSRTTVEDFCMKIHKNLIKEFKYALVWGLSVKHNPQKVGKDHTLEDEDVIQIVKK


Experiments:
[1] = biological target: T1, developmentally regulated GTP-binding protein 1 (DRG1), HA-DRG1 expressed in 293T cells; test: co-IP; exogenous co-IP in transfected 293T cells; also with or without cotransfected Cardinal or Cardinal-as, plasmid amounts titrated for comparable inputs
[2] = biological target: T2, developmentally regulated GTP-binding protein 1 (DRG1), endogenous in HL-1 cells (mouse (endogenous in HL-1)); test: co-IP; endogenous co-IP in HL-1 cells with anti-DRG1, IgG as control; also in sh-NC and sh-Cardinal HL-1 cells

| binding [1] | binding [2] | Binder |
| --- | --- | --- |
| binds | – | DRG family regulatory protein 1 (DFRP1), expressed in 293T cells (protein, UniProt Q3TIV5 1-426) MPPKKQAQAGGSKKAEQKKKEKIIEDKTFGLKNKKGAKQQKFIKAVTHQVKFGQQNPRQVAQSEAEKKLKKDDKKKELQELNELFKPVVAAQKISKGADPKSVVCAFFKQGQCTKGDKCKFSHDLTLERKCEKRSVYIDARDEELEKDTMDNWDEKKLEEVVNKKHGEAEKKKPKTQIVCRHFLEAIENNKYGWFWVCPGGGDNCMYRHALPPGFVLKKDKKKEEKEDEISLEDLIERERSALGPNVTKITLESFLAWKKRKRQEKIDKLEQDMERRKADFKAGKALVISGREVFEFRPELVNDDDEEADDTRYIQGTGGDEVDDSMGVNDIDISLYVPRDVEETGITVASVERFSTYAPDKDENKLSEASGGLAENGERSDLDEDSGGGGQENGSIDAVPVDENLFTGEDLDELEEELNTLDLEE |
| – | binds | DRG family regulatory protein 1 (DFRP1), endogenous in HL-1 cells (protein, UniProt Q3TIV5 1-426) MPPKKQAQAGGSKKAEQKKKEKIIEDKTFGLKNKKGAKQQKFIKAVTHQVKFGQQNPRQVAQSEAEKKLKKDDKKKELQELNELFKPVVAAQKISKGADPKSVVCAFFKQGQCTKGDKCKFSHDLTLERKCEKRSVYIDARDEELEKDTMDNWDEKKLEEVVNKKHGEAEKKKPKTQIVCRHFLEAIENNKYGWFWVCPGGGDNCMYRHALPPGFVLKKDKKKEEKEDEISLEDLIERERSALGPNVTKITLESFLAWKKRKRQEKIDKLEQDMERRKADFKAGKALVISGREVFEFRPELVNDDDEEADDTRYIQGTGGDEVDDSMGVNDIDISLYVPRDVEETGITVASVERFSTYAPDKDENKLSEASGGLAENGERSDLDEDSGGGGQENGSIDAVPVDENLFTGEDLDELEEELNTLDLEE |
